Assay results reported in paper doi:10.1101/2025.07.04.663186.

Sequences of proteins named here, by UniProt entry; tags and fusion partners are left off. A change or cut given only in a name is not applied to a line headed by its entry. Residues count along the entry.
UniProt O00160: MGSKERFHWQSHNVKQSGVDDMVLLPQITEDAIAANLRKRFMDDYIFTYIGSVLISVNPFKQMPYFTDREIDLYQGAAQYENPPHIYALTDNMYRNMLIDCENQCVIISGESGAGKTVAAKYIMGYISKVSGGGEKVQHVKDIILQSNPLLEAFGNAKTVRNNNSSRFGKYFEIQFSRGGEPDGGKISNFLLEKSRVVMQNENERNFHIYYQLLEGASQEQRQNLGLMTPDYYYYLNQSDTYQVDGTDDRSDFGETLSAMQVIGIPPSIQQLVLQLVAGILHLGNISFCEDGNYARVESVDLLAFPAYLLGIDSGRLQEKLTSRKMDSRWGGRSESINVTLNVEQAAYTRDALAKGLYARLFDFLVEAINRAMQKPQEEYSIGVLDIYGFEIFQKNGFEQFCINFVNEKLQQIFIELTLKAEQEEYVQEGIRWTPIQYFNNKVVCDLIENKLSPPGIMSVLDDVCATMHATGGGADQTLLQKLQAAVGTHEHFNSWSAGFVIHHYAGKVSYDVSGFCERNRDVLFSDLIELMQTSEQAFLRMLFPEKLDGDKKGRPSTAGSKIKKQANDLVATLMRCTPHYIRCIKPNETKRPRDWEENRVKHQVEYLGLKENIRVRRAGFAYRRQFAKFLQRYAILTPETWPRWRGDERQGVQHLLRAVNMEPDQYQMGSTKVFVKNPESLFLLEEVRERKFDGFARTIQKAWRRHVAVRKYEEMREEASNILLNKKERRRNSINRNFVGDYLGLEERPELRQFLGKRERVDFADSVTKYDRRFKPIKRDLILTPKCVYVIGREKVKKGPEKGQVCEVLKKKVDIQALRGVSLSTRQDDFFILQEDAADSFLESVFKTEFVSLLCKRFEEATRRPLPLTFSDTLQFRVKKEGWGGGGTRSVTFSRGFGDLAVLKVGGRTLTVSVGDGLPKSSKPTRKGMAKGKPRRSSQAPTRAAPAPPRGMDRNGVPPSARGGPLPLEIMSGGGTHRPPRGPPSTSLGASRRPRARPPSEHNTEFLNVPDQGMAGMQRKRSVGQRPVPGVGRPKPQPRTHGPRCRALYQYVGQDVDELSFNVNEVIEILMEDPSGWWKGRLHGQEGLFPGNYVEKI
UniProt Q96B97: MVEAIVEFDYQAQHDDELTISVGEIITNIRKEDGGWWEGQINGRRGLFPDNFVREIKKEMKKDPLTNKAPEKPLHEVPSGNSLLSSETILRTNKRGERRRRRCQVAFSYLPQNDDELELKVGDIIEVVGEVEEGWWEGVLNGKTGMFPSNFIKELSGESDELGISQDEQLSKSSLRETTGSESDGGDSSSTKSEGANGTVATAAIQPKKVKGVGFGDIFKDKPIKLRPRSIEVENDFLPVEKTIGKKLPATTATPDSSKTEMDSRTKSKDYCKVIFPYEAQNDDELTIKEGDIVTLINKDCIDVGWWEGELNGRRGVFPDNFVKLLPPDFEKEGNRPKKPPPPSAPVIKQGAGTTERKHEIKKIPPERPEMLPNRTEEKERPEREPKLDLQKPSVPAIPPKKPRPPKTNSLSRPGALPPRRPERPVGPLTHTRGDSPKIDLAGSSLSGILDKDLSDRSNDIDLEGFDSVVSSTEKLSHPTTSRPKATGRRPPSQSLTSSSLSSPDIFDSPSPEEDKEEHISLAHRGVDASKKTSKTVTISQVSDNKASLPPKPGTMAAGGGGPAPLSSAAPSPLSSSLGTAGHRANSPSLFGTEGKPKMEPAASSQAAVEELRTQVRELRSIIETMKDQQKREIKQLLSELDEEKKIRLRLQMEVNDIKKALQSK
UniProt Q9ULH1, residues 589-1129: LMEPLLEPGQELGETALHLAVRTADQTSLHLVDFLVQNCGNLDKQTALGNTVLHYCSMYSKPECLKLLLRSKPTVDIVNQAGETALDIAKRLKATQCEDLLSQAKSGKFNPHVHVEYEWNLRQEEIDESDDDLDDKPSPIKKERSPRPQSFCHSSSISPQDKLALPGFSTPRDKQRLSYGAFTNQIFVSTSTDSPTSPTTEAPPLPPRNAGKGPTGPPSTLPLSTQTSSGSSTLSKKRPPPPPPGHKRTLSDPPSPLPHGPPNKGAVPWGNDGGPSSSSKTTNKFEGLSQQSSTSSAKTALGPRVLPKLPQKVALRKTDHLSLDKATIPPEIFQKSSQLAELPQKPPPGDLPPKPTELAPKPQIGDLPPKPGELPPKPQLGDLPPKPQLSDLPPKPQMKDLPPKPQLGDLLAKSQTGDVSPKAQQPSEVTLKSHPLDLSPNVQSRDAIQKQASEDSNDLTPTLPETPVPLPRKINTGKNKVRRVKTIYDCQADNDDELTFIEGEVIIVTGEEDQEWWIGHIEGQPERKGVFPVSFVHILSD

B1: myc-SH3BP2 (wild-type) (protein, UniProt P78314 1-561)
chain: MAAEEMHWPVPMKAIGAQNLLTMPGGVAKAGYLHKKGGTQLQLLKWPLRFVIIHKRCVYYFKSSTSASPQGAFSLSGYNRVMRAAEETTSNNVFPFKIIHISKKHRTWFFSASSEEERKSWMALLRREIGHFHEKKDLPLDTSDSSSDTDSFYGAVERPVDISLSPYPTDNEDYEHDDEDDSYLEPDSPEPGRLEDALMHPPAYPPPPVPTPRKPAFSDMPRAHSFTSKGPGPLLPPPPPKHGLPDVGLAAEDSKRDPLCPRRAEPCPRVPATPRRMSDPPLSTMPTAPGLRKPPCFRESASPSPEPWTPGHGACSTSSAAIMATATSRNCDKLKSFHLSPRGPPTSEPPPVPANKPKFLKIAEEDPPREAAMPGLFVPPVAPRPPALKLPVPEAMARPAVLPRPEKPQLPHLQRSPPDGQSFRSFSFEKPRQPSQADTGGDDSDEDYEKVPLPNSVFVNTTESCEVERLFKATSPRGEPQDGLYCIRNSSTKSGKVLVVWDETSNKVRNYRIFEKDSKFYLEGEVLFVSVGSMVEHYHTHVLPSHQSLLLRHPYGYTGPR

These molecules were tested against GFP-MYO1FΔSH3 (human) (UniProt O00160) (assay: co-IP).

binding, no binding:
myc-SH3KBP1 (from UniProt Q96B97 1-665)
myc-ASAP-3' (aa 589 - aa1129) (from UniProt Q9ULH1 589-1129) (domain or fragment)
B1

These are yes or no findings as the source states them, for the method shown. Binding seen in cells or lysates may run through a third protein. Sequences can lack the tags named with a protein.
